Results reported in PubChem BioAssay AID180 (DTP/NCI, 2004).
The list is a part of this screen's results and no random one: it gathers tests that were run many times, whatever their T/C, doses with no T/C, and many T/C values between a quarter and a half above the control. Other doses and runs of a compound stand elsewhere. T/C is the treated group as % of the vehicle group. Schedule codes are those of the source, read here as Q, the interval in days (D) or hours (H), X, the number of doses. Some T/C values carry the count of animals alive at the toxicity check (mostly the fifth day); without a count, all were alive then. Some doses have a count of surviving animals in place of a T/C: the source files T/C as zero there, which appears to mark a toxic dose or a test without result, not a measured value. Counts of survivors are from the toxicity check (mostly the fifth day) where no day follows; animals may have died later. Some entries were tested several times; the results are listed from low to high.

Test system: BDF1 mice, Adenocarcinoma 755 s.c., tumor weight T/C
Experiment: NCI In Vivo Anticancer Drug Screen. Data for tumor model Adenocarcinoma 755 (subcutaneous) in B6D2F1 (BDF1) mice
Details: T/C endpoint: mean tumor weight, higher T/C = larger tumour; for T/C: evaluated on day 12
How it was run: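 In vivo antitumor screen on a transplantable tumor line. Result equals the measure in compound-treated animals divided by the same measure in vehicle controls.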

[1] = dose: 65.0 mg/kg/injection, schedule: Q01DX011 (ip), vehicle: methylcellulose (MC)
[2] = dose: 125.0 mg/kg/injection, schedule: Q01DX011 (ip), vehicle: carboxymethylcellulose (CMC)

Q: With CC1CC(C)(O)CC(C(O)CC2CC(=O)NC(=O)C2)C1=O (stereo not drawn) as the compound, how does the T/C (dose: 0.05 mg/kg/injection, schedule: Q01DX011 (ip), vehicle: alkali diluted with saline) read?
A: 142 % of control

Q: What about the survivor count (dose: 0.4 mg/kg/injection, schedule: Q01DX011 (ip), vehicle: alkali diluted with saline) of the same compound?
A: 2 of 10

Q: CCC(=O)NC was tested. Which T/C (dose: 90.0 mg/kg/injection, schedule: Q01DX011 (ip), vehicle: saline) did it give?
A: 133 % of control

Q: Which survivor count (dose: 175.0 mg/kg/injection, schedule: Q01DX011 (ip), vehicle: carboxymethylcellulose (CMC)) does the source give for CCOc1nc(N)nc2n[nH]nc12 here?
A: 3 of 10

Q: And the survivor count (dose: 200.0 mg/kg/injection, schedule: Q01DX011 (ip), vehicle: carboxymethylcellulose (CMC))?
A: 1 of 10

Q: Which results are given for CC(C)(CBr)C(=O)N1CCN(C(=O)C(C)(C)CBr)CC1?
A: survivor count (dose: 28.0 mg/kg/injection, schedule: Q01DX011 (ip), vehicle: methylcellulose (MC)): 6 of 10; survivor count (dose: 57.0 mg/kg/injection, schedule: Q01DX011 (ip), vehicle: methylcellulose (MC)): 2 of 10; survivor count (dose: 113.0 mg/kg/injection, schedule: Q01DX011 (ip), vehicle: methylcellulose (MC)): 1 of 10

Q: Which survivor count (dose: 10.0 mg/kg/injection, schedule: Q01DX011 (sc), vehicle: steroid suspending solution) does the source give for C[C@]12CCC(=O)C=C1CC[C@@H]1[C@@H]2[C@@H](O)C[C@@]2(C)[C@H]1CC[C@]2(O)C(=O)CO here?
A: 2 of 10

Q: And the survivor count (dose: 160.0 mg/kg/injection, schedule: Q01DX011 (sc), vehicle: steroid suspending solution)?
A: 6 of 10

Q: How did the T/C (dose: 125.0 mg/kg/injection, schedule: Q01DX011 (ip), vehicle: methylcellulose (MC)) turn out when Cc1ccccc1Nc1cc(=S)nc(N)[nH]1 was run?
A: 126 % of control [9 of 10 alive]

Q: With COc1cc2c3c(c4cc(OC)c(OC)cc4c2cc1OC)CN1CCC[C@H]1C3 as the compound, how does the survivor count (dose: 20.0 mg/kg/injection, schedule: Q01DX006 (ip), vehicle: water) read?
A: 2 of 6

Q: How did the survivor count (dose: 37.0 mg/kg/injection, schedule: Q01DX011 (ip), vehicle: other) turn out when CC(Cc1ccccc1)NC(=O)CCl (stereo not drawn) was run?
A: 3 of 10

Q: What about the survivor count (dose: 50.0 mg/kg/injection, schedule: Q01DX011 (ip), vehicle: other) of the same compound?
A: 2 of 10

Q: And the survivor count (dose: 112.0 mg/kg/injection, schedule: Q01DX011 (im), vehicle: other)?
A: 5 of 10

Q: And the survivor count (dose: 112.0 mg/kg/injection, schedule: Q01DX011 (sc), vehicle: other)?
A: 3 of 10

Q: For Cc1ccc(N=Nc2c(S(=O)(=O)O)cc3cc(NC(=O)Nc4ccc5c(O)c(N=Nc6ccc7cc(S(=O)(=O)O)ccc7c6)c(S(=O)(=O)O)cc5c4)ccc3c2O)cc1, which survivor count [1] is on record?
A: 2 of 10

Q: And the survivor count (dose: 100.0 mg/kg/injection, schedule: Q01DX011 (ip), vehicle: methylcellulose (MC))?
A: 5 of 10

Q: And the survivor count (dose: 150.0 mg/kg/injection, schedule: Q01DX011 (ip), vehicle: methylcellulose (MC))?
A: 5 of 10

Q: With NC(=O)c1ccc(NC(=O)/C=C/C(=O)Nc2ccc(C(N)=O)cn2)nc1 as the compound, how does the survivor count (dose: 3.75 mg/kg/injection, schedule: Q01DX011 (ip), vehicle: carboxymethylcellulose (CMC)) read?
A: 4 of 10

Q: Which survivor count (dose: 112.0 mg/kg/injection, schedule: Q01DX011 (ip), vehicle: carboxymethylcellulose (CMC)) does the source give for CC(C)OC(=O)C1(N)CCCC1 here?
A: 6 of 10

Q: What about the survivor count (dose: 120.0 mg/kg/injection, schedule: Q01DX011 (ip), vehicle: other) of the same compound?
A: 4 of 10

Q: Which results are given for Cn1c(N)c(N=O)c(=O)n(C)c1=O?
A: survivor count (dose: 20.0 mg/kg/injection, schedule: Q01DX011 (ip), vehicle: water): 4 of 10; survivor count (dose: 40.0 mg/kg/injection, schedule: Q01DX011 (ip), vehicle: water): 3 of 10; survivor count (dose: 80.0 mg/kg/injection, schedule: Q01DX011 (ip), vehicle: water): 3 of 10; T/C [2]: 139 % of control; T/C (dose: 175.0 mg/kg/injection, schedule: Q01DX011 (oral), vehicle: methylcellulose (MC)): 135 % of control [8 of 10 alive]; T/C (dose: 350.0 mg/kg/injection, schedule: Q01DX011 (oral), vehicle: methylcellulose (MC)): 136 % of control [9 of 10 alive]; survivor count (dose: 400.0 mg/kg/injection, schedule: Q01DX011 (ip), vehicle: carboxymethylcellulose (CMC)): 1 of 10; survivor count (dose: 600.0 mg/kg/injection, schedule: Q01DX011 (ip), vehicle: carboxymethylcellulose (CMC)): 1 of 10; survivor count (dose: 700.0 mg/kg/injection, schedule: Q01DX011 (oral), vehicle: methylcellulose (MC)): 6 of 10; survivor count (dose: 2100.0 mg/kg/injection, schedule: Q01DX011 (oral), vehicle: methylcellulose (MC)): 5 of 16; survivor count (dose: 2800.0 mg/kg/injection, schedule: Q01DX011 (oral), vehicle: methylcellulose (MC)): 7 of 16

Q: For O=C1NC(=O)C2(CCCc3ccc(N(CCCl)CCCl)cc32)N1 (stereo not drawn), which survivor count (dose: 110.0 mg/kg/injection, schedule: Q01DX011 (ip), vehicle: carboxymethylcellulose (CMC)) is on record?
A: 0 of 10

Q: And the survivor count (dose: 110.0 mg/kg/injection, schedule: Q01DX011 (ip), vehicle: other)?
A: 6 of 10

Q: C[C@]12C=CC(=O)C=C1CC[C@@H]1[C@@H]2[C@@H](O)C[C@@]2(C)[C@H]1CC[C@]2(O)C(=O)COC(=O)CCC1CCCC1 was tested. Which survivor count (dose: 3.1 mg/kg/injection, schedule: Q01DX011 (sc), vehicle: water) did it give?
A: 6 of 10

Q: What about the survivor count (dose: 50.0 mg/kg/injection, schedule: Q01DX011 (sc), vehicle: water) of the same compound?
A: 5 of 10

Q: For O=C(N[C@H](CO)[C@H](O)c1ccc([N+](=O)[O-])cc1)C(Cl)Cl, which T/C (dose: 47.93 mg/kg/injection, schedule: Q01DX011 (ip), vehicle: carboxymethylcellulose (CMC)) is on record?
A: 141 % of control

Q: What about the T/C (dose: 147.25 mg/kg/injection, schedule: Q01DX011 (ip), vehicle: carboxymethylcellulose (CMC)) of the same compound?
A: 132 % of control [9 of 10 alive]

Q: What about the survivor count (dose: 294.5 mg/kg/injection, schedule: Q01DX011 (ip), vehicle: carboxymethylcellulose (CMC)) of the same compound?
A: 9 of 18

Q: What about the T/C (dose: 383.4 mg/kg/injection, schedule: Q01DX011 (ip), vehicle: carboxymethylcellulose (CMC)) of the same compound?
A: 126 % of control [9 of 10 alive]

Q: And the survivor count (dose: 450.0 mg/kg/injection, schedule: Q01DX011 (ip), vehicle: carboxymethylcellulose (CMC))?
A: 6 of 10

Q: And the survivor count (dose: 573.9 mg/kg/injection, schedule: Q01DX011 (ip), vehicle: carboxymethylcellulose (CMC))?
A: 2 of 10

Q: What about the survivor count (dose: 589.0 mg/kg/injection, schedule: Q01DX011 (ip), vehicle: carboxymethylcellulose (CMC)) of the same compound?
A: 1 of 10 and 6 of 10

Q: And the survivor count (dose: 590.0 mg/kg/injection, schedule: Q01DX011 (ip), vehicle: carboxymethylcellulose (CMC))?
A: 5 of 9

Q: With CCCCn1cnc2c(=S)nc[nH]c21 as the compound, how does the survivor count (dose: 1.2 mg/kg/injection, schedule: Q01DX011 (ip), vehicle: olive oil, sesame oil, peanut oil) read?
A: 6 of 10

Q: What about the survivor count (dose: 2.5 mg/kg/injection, schedule: Q01DX011 (ip), vehicle: olive oil, sesame oil, peanut oil) of the same compound?
A: 5 of 10

Q: What about the survivor count [2] of the same compound?
A: 0 of 10

Q: What does the source list for C[C@]12CC[C@H](OC3OC(CO)C(O)C(O)C3O)C[C@H]1CC[C@@H]1[C@@H]2CC[C@]2(C)[C@@H](C3=CCOC3=O)CC[C@]12O (stereo partly drawn)?
A: survivor count (dose: 1.0 mg/kg/injection, schedule: Q01DX011 (ip), vehicle: saline): 5 of 10; survivor count (dose: 2.0 mg/kg/injection, schedule: Q01DX011 (ip), vehicle: saline): 1 of 10; survivor count (dose: 4.0 mg/kg/injection, schedule: Q01DX011 (ip), vehicle: saline): 0 of 10

Q: C[C@]1(O)CC[C@H]2[C@@H]3CC[C@@H]4CC(=O)CC[C@]4(C)[C@@]3(F)C(=O)C[C@@]21C was tested. Which T/C (dose: 25.0 mg/kg/injection, schedule: Q01DX011 (sc), vehicle: steroid suspending solution) did it give?
A: 129 % of control

Q: How did the survivor count [1] turn out when O=C(CCl)Nc1ncnc2nc[nH]c12 was run?
A: 3 of 10
